Data on 1 molecule can be found in article PMC6735362.

Chains of the proteins cited; added tags and fusions are not shown. Lines headed by an entry give the natural chain unless they say otherwise; changes in a name come on top.
UniProt P18206: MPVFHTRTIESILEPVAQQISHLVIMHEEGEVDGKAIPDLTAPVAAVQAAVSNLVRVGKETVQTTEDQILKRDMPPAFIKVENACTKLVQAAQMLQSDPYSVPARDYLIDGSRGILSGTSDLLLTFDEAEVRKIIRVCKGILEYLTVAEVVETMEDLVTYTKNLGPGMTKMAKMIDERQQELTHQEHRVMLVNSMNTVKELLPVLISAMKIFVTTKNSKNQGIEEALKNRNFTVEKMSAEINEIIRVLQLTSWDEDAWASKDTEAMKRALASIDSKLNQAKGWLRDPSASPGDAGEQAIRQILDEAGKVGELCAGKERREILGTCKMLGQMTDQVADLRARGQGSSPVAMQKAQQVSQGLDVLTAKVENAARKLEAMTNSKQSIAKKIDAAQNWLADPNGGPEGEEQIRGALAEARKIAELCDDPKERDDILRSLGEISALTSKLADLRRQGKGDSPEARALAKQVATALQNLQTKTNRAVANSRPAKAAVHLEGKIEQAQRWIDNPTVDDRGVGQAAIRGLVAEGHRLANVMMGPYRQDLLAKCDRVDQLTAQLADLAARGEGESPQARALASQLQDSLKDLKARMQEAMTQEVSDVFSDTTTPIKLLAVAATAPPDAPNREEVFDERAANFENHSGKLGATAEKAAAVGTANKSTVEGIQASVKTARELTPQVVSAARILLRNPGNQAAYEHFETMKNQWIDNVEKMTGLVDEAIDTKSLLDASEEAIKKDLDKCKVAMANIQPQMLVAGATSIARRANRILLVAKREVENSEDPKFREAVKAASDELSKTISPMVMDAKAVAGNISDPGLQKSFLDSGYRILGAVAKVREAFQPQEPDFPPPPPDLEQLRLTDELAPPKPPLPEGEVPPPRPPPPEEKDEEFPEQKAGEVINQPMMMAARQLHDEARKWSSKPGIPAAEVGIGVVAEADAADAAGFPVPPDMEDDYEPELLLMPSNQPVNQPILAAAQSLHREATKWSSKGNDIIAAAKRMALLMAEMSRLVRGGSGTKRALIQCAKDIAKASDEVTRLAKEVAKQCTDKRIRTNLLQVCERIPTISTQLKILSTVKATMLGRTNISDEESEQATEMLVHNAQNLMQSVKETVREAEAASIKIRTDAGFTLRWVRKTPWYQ

For this assay, the target named is Vinculin, endogenous in human brain vascular pericytes (human (endogenous in HBVPs)) (UniProt P18206). Briefly: co-IP; endogenous proteins; whole cell extracts of HBVPs incubated with or without SIN-1 (0.5 mM, 12 h); anti-Vinculin antibody 1 h at 4 °C, Capturem IP & Co-IP Kit spin column; immunoblot for GPR124 and Vinculin. (In general: In western blotting, separated proteins are transferred to a membrane and probed.)

These are yes or no findings as the source states them, for the method shown. In cells and extracts the contact can be indirect. Binding calls can cover weak binding; strength is not graded here.

B1: G protein-coupled receptor 124 (GPR124), endogenous in human brain vascular pericytes (receptor, UniProt Q96PE1 34-1338)
chain: APGCPLSIRSCKCSGERPKGLSGGVPGPARRRVVCSGGDLPEPPEPGLLPNGTVTLLLSNNKITGLRNGSFLGLSLLEKLDLRNNIISTVQPGAFLGLGELKRLDLSNNRIGCLTSETFQGLPRLLRLNISGNIFSSLQPGVFDELPALKVVDLGTEFLTCDCHLRWLLPWAQNRSLQLSEHTLCAYPSALHAQALGSLQEAQLCCEGALELHTHHLIPSLRQVVFQGDRLPFQCSASYLGNDTRIRWYHNRAPVEGDEQAGILLAESLIHDCTFITSELTLSHIGVWASGEWECTVSMAQGNASKKVEIVVLETSASYCPAERVANNRGDFRWPRTLAGITAYQSCLQYPFTSVPLGGGAPGTRASRRCDRAGRWEPGDYSHCLYTNDITRVLYTFVLMPINASNALTLAHQLRVYTAEAASFSDMMDVVYVAQMIQKFLGYVDQIKELVEVMVDMASNLMLVDEHLLWLAQREDKACSRIVGALERIGGAALSPHAQHISVNARNVALEAYLIKPHSYVGLTCTAFQRREGGVPGTRPGSPGQNPPPEPEPPADQQLRFRCTTGRPNVSLSSFHIKNSVALASIQLPPSLFSSLPAALAPPVPPDCTLQLLVFRNGRLFHSHSNTSRPGAAGPGKRRGVATPVIFAGTSGCGVGNLTEPVAVSLRHWAEGAEPVAAWWSQEGPGEAGGWTSEGCQLRSSQPNVSALHCQHLGNVAVLMELSAFPREVGGAGAGLHPVVYPCTALLLLCLFATIITYILNHSSIRVSRKGWHMLLNLCFHIAMTSAVFAGGITLTNYQMVCQAVGITLHYSSLSTLLWMGVKARVLHKELTWRAPPPQEGDPALPTPSPMLRFYLIAGGIPLIICGITAAVNIHNYRDHSPYCWLVWRPSLGAFYIPVALILLITWIYFLCAGLRLRGPLAQNPKAGNSRASLEAGEELRGSTRLRGSGPLLSDSGSLLATGSARVGTPGPPEDGDSLYSPGVQLGALVTTHFLYLAMWACGALAVSQRWLPRVVCSCLYGVAASALGLFVFTHHCARRRDVRASWRACCPPASPAAPHAPPRALPAAAEDGSPVFGEGPPSLKSSPSGSSGHPLALGPCKLTNLQLAQSQVCEAGAAAGGEGEPEPAGTRGNLAHRHPNNVHHGRRAHKSRAKGHRAGEACGKNRLKALRGGAAGALELLSSESGSLHNSPTDSYLGSSRNSPGAGLQLEGEPMLTPSEGSDTSAAPLSEAGRAGQRRSASRDSLKGGGALEKESHRRSYPLNAASLNGAPKGGKYDDVTLMGAEVASGGCMKTGLWKSETTV
B1: the binding entry is “binds”.
